Substitutions are numbered along the chain they refer to. For at least one entry, the source does not settle the construct or the ends of the probe. For some of these results: Protein sequences can lack the tags named with them.
Key:
Test in all cases: ITC
[1] = target: RBM39 mRRM2 Y253A,H258A,F259A,F295A (UniProt Q14498); conditions: ITC: RRM2/RRM12 in 10 mM Na phosphate pH 6.8, 50 mM NaCl, 2 mM DTT; RRM1 in the same at pH 5.5; 40 C (RRM12 with ssSL3 at 35 C); recombinant protein
[2] = target: RBM39 RRM2 H258A/F259A/R289A (UniProt Q14498); conditions: ITC: RRM2/RRM12 in 10 mM Na phosphate pH 6.8, 50 mM NaCl, 2 mM DTT; RRM1 in the same at pH 5.5; 40 C (RRM12 with ssSL3 at 35 C); recombinant protein
[3] = target: T1, RBM39 mRRM1.2 R188A,R191A,R192A,K194A (UniProt Q14498); conditions: ITC: RRM2/RRM12 in 10 mM Na phosphate pH 6.8, 50 mM NaCl, 2 mM DTT; RRM1 in the same at pH 5.5; 40 C (RRM12 with ssSL3 at 35 C); recombinant protein; letters put together from the description
T1 sequence (looked up, limits assumed): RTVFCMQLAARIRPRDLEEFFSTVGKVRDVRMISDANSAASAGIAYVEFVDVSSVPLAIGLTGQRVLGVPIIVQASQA

The chains behind the UniProt entries cited, without tags or fusion partners. Residues count along the entry.
UniProt Q14498, 250-328 Y253A/H258A/F259A/F295A: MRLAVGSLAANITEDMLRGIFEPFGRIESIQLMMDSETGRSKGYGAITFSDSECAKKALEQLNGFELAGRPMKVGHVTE
UniProt Q14498, 250-328 H258A/F259A/R289A: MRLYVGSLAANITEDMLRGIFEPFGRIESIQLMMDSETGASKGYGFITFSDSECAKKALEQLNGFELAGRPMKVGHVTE

[4] = target: T2, RBM39 mRRM1.1 F156A,Y198A,R192A (UniProt Q14498); conditions: ITC: RRM2/RRM12 in 10 mM Na phosphate pH 6.8, 50 mM NaCl, 2 mM DTT; RRM1 in the same at pH 5.5; 40 C (RRM12 with ssSL3 at 35 C); recombinant protein; letters put together from the description
T2 sequence (looked up, limits assumed): T1 sequence (looked up, limits assumed) with F4A, A36R, A39R, A42K, Y46A

Sequence | Kd [1] [µM] | Kd [2] [µM] | Kd [3] [µM] | Kd [4] [µM]
AGCUUUG | > 100 | > 100 | – | –
GGGAUUUCCCCAAAUGUGGGAAACUCCC [U1 snRNA SL3] | – | – | > 100 | > 100
